Measurements: the supplement of paper PMC12542422
Where a name gives a salt, the structure may show the parent alone. ± gives the standard deviation of the averaged measurements. The list shows a part of the results. These are raw signals, not scaled to a control.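 Ribosome-assembly readouts in HeLa cells were imaged via ENP1 staining, with or without export block, or inducible tagged ribosomal protein reporters. Machine learning classified per-cell signal location versus solvent (DMSO) controls. Hits surpassed the DMSO false-positive mean by five standard deviations and were visually confirmed; three biological replicates.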

Assays:
[1] = test system: HeLa K (ENP1 immunofluorescence, +LMB); assay: fraction of cells with nucleolar or nucleolar/nucleoplasmic ENP1 signal (MainHitrate); higher = more cells with nucleolar/nuclear readout signal (for ENP1 -LMB: less RNAPI inhibition; for +LMB ENP1 and RP reporters: stronger nuclear/nucleolar retention, i.e. ribosome biogenesis defect); conditions: concentration: 1 µM; treatment time: 6 h; ENP1 +LMB; leptomycin B: 20 nM, last 1.5 h
[2] = test system: HeLa K (ENP1 immunofluorescence, no LMB); assay: as above; conditions: concentration: 1 µM; treatment time: 6 h; ENP1 -LMB; leptomycin B: none
HeLa RPS2-YFP reporter = assay: fraction of reporter-positive cells with nuclear (nucleolar or nucleolar/nucleoplasmic) RPS2-YFP (MainHitrate); higher = more cells with nucleolar/nuclear readout signal (for ENP1 -LMB: less RNAPI inhibition; for +LMB ENP1 and RP reporters: stronger nuclear/nucleolar retention, i.e. ribosome biogenesis defect); conditions: concentration: 1 µM; treatment time: 6 h
HeLa RPL29-GFP reporter = assay: fraction of reporter-positive cells with nuclear (nucleolar or nucleolar/nucleoplasmic) RPL29-GFP (MainHitrate); higher = more cells with nucleolar/nuclear readout signal (for ENP1 -LMB: less RNAPI inhibition; for +LMB ENP1 and RP reporters: stronger nuclear/nucleolar retention, i.e. ribosome biogenesis defect); conditions: concentration: 1 µM; treatment time: 6 h

Row | Structure (SMILES) | fraction [1] | fraction [2] | fraction of reporter-positive cells with nuclear (HeLa RPS2-YFP reporter) | fraction of reporter-positive cells with nuclear (HeLa RPL29-GFP reporter)
1 | COc1ccc(C2CNC(=O)C2)cc1OC1CCCC1 (stereo not given) [Rolipram] | 0.0669 ± 0.064 | 0.9981 ± 0.0033 | 0.113 ± 0.041 | 0.201 ± 0.058
2 | COc1cc(NS(=O)(=O)c2ccc(N)cc2)nc(OC)n1 [Sulphadimethoxine] | 0.0507 ± 0.068 | 0.9948 ± 0.009 | 0.0704 ± 0.03 | 0.219 ± 0.033
3 | NC(=O)c1ncn([C@@H]2O[C@H](CO)[C@@H](O)[C@H]2O)c1O [Mizoribine (Bredinin)] | 0.12 ± 0.14 | 0.9985 ± 0.0026 | 0.108 ± 0.05 | 0.212 ± 0.067
4 | Cc1nnc(C(=O)NC(C)(C)c2nc(C(=O)NCc3ccc(F)cc3)c(O)c(=O)n2C)o1 [Raltegravir (MK-0518)] | 0.0994 ± 0.14 | 0.988 ± 0.021 | 0.0977 ± 0.07 | 0.229 ± 0.077
5 | CNCC(O)c1ccc(O)c(O)c1 (racemic) [DL-Adrenaline] | 0.121 ± 0.17 | 0.99 ± 0.017 | 0.105 ± 0.078 | 0.213 ± 0.049
6 | Oc1c(Br)cc(Br)c2cccnc12 [Broxyquinoline] | 0.0443 ± 0.056 | 0.985 ± 0.026 | 0.116 ± 0.087 | 0.203 ± 0.057
7 | COc1ccc2c(c1)c(CC(=O)OCC(=O)O)c(C)n2C(=O)c1ccc(Cl)cc1 [Acemetacin (Emflex)] | 0.0649 ± 0.09 | 0.987 ± 0.023 | 0.118 ± 0.097 | 0.219 ± 0.061
8 | C=C(c1ccc(C(=O)O)cc1)c1cc2c(cc1C)C(C)(C)CCC2(C)C [Bexarotene] | 0.104 ± 0.16 | 0.9971 ± 0.005 | 0.0934 ± 0.075 | 0.222 ± 0.071
9 | CC(=O)OCC(=O)NCCCOc1cccc(CN2CCCCC2)c1 [Roxatidine acetate HCl] | 0.115 ± 0.17 | 0.993 ± 0.013 | 0.106 ± 0.075 | 0.207 ± 0.054
10 | NCCC(O)(P(=O)(O)O)P(=O)(O)O [Pamidronate Disodium] | 0.0864 ± 0.044 | 0.9987 ± 0.0023 | 0.0917 ± 0.062 | 0.237 ± 0.053
11 | COCCc1ccc(OCC(O)CNC(C)C)cc1 (stereo not given) [Metoprolol tartrate] | 0.0725 ± 0.092 | 0.993 ± 0.012 | 0.109 ± 0.066 | 0.219 ± 0.088
12 | CCCNC(=O)NS(=O)(=O)c1ccc(Cl)cc1 [Chlorpropamide] | 0.0777 ± 0.1 | 0.976 ± 0.041 | 0.115 ± 0.12 | 0.298 ± 0.15
13 | O=C1c2c(O)ccc(O)c2C(=O)c2c(NCCNCCO)ccc(NCCNCCO)c21 [Mitoxantrone Hydrochloride] | 0.0522 ± 0.082 | 0.697 ± 0.52 | 0.0385 ± 0.012 | 0.54 ± 0.28
14 | CCN(CC)CC(=O)Nc1c(C)cccc1C [Lidocaine (Alphacaine)] | 0.106 ± 0.077 | 0.9974 ± 0.0044 | 0.109 ± 0.093 | 0.23 ± 0.074
15 | CC1(C)O[C@@H]2C[C@H]3[C@@H]4CCC5=CC(=O)C=C[C@]5(C)[C@@]4(F)[C@@H](O)C[C@]3(C)[C@]2(C(=O)CO)O1 [Triamcinolone Acetonide] | 0.0948 ± 0.11 | 0.9987 ± 0.0023 | 0.176 ± 0.11 | 0.236 ± 0.062
16 | CC(C)OC(=O)OCOP(=O)(CO[C@H](C)Cn1cnc2c(N)ncnc21)OCOC(=O)OC(C)C [Tenofovir Disoproxil Fumarate] | 0.108 ± 0.14 | 0.999 ± 0.0018 | 0.115 ± 0.061 | 0.184 ± 0.06
17 | CC1CC(OC(=O)C(O)c2ccccc2)CC(C)(C)C1 (stereo not given) [Cyclandelate] | 0.112 ± 0.14 | 0.984 ± 0.028 | 0.15 ± 0.084 | 0.212 ± 0.073
18 | COc1cc2/c(=N/c3ccc(Br)cc3F)nc[nH]c2cc1OCC1CCN(C)CC1 [Vandetanib (Zactima)] | 0.087 ± 0.05 | 0.9987 ± 0.0023 | 0.106 ± 0.066 | 0.197 ± 0.047
19 | CC12CC3CC(C)(C1)CC(N)(C3)C2 [Memantine HCl (Namenda)] | 0.113 ± 0.15 | 0.99 ± 0.018 | 0.119 ± 0.049 | 0.221 ± 0.044
20 | Nc1ncn([C@H]2C[C@H](O)[C@@H](CO)O2)c(=O)n1 [Decitabine] | 0.0605 ± 0.061 | 0.992 ± 0.013 | 0.0905 ± 0.072 | 0.221 ± 0.089
21 | C=C[C@H]1CN2CC[C@H]1C[C@H]2[C@H](O)c1ccnc2ccc(OC)cc12 [Quinine hydrochloride dihydrate] | 0.0954 ± 0.11 | 0.9946 ± 0.0094 | 0.106 ± 0.089 | 0.23 ± 0.058
22 | CC[C@H]1OC(=O)[C@H](C)[C@@H](O[C@H]2C[C@@](C)(OC)[C@@H](O)[C@H](C)O2)[C@H](C)[C@@H](O[C@@H]2O[C@H](C)C[C@H](N(C)C)[C@H]2O)[C@](C)(O)C[C@@H](C)CN(C)[C@H](C)[C@@H](O)[C@]1(C)O [Azithromycin (Zithromax)] | 0.0795 ± 0.11 | 0.994 ± 0.01 | 0.109 ± 0.068 | 0.249 ± 0.056
23 | CC1=C(C(=O)O)N2C(=O)[C@@H](NC(=O)[C@H](N)c3ccccc3)[C@H]2SC1 [Cephalexin (Cefalexin)] | 0.0969 ± 0.087 | 0.998 ± 0.0034 | 0.106 ± 0.075 | 0.228 ± 0.076
24 | O=C(CCCN1CCN(c2ccccn2)CC1)c1ccc(F)cc1 [Azaperone] | 0.109 ± 0.15 | 0.983 ± 0.029 | 0.131 ± 0.09 | 0.21 ± 0.043
25 | CCCc1cc(C(N)=S)ccn1 [Protionamide (Prothionamide)] | 0.131 ± 0.18 | 0.993 ± 0.012 | 0.109 ± 0.033 | 0.223 ± 0.067

Copied from above: compounds 8 to 9
Row | Structure (SMILES) | fraction [1] | fraction [2] | fraction of reporter-positive cells with nuclear (HeLa RPS2-YFP reporter) | fraction of reporter-positive cells with nuclear (HeLa RPL29-GFP reporter)
8 | C=C(c1ccc(C(=O)O)cc1)c1cc2c(cc1C)C(C)(C)CCC2(C)C [Bexarotene] | 0.104 ± 0.16 | 0.9971 ± 0.005 | 0.0934 ± 0.075 | 0.222 ± 0.071
9 | CC(=O)OCC(=O)NCCCOc1cccc(CN2CCCCC2)c1 [Roxatidine acetate HCl] | 0.115 ± 0.17 | 0.993 ± 0.013 | 0.106 ± 0.075 | 0.207 ± 0.054
